PubChem BioAssay AID1259314 | Drosophila RNAi Screening Center – 2017
Aim: 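Genes whose knock-down alters cell survival under toxic manganese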 (primary screen). Cell system: Drosophila S2R+ cells. Reagents: long dsRNA against Drosophila genes. Duration: 5 days (4 days knock-down, then 1 day metal exposure). Challenge: manganese chloride added to 15 mM for 24 hours. Detection: 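Luciferase ATP signal used as a proxy for viable cell number, reported as one averaged z-score per dsRNA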. Reading the numbers: mean ATP z-score: higher = more ATP than the plate average, more viable cells under manganese. Hit rule: 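Called active when the mean ATP z-score is above 1.5 or below -1.5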. Meaning of the calls: active = strong ATP change, up or down; inactive = no strong ATP change.
The whole screen tested about 3,100 reagents; this is a random part of them. Over the whole deposit, 289 (9.3%) were called active. 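Active includes both higher and lower ATP than plate average; check the z-score sign for direction.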 Names joined by + are all predicted targets of the reagent. Reagent sequences are not shown. The record does not give: the amount of reagent.

The first 4 entries, to show the layout:
Target gene | amplicon | mean ATP z-score | activity call
Ent3 | DRSC09822 | -0.604 | inactive
Ent3 | DRSC29706 | -0.481 | inactive
jagn | DRSC12152 | 0.942 | inactive
jagn | DRSC39810 | 0.246 | inactive

The list itself, from the start:
Target gene | amplicon | mean ATP z-score | activity call
Ent3 | DRSC09822 | -0.604 | inactive
Ent3 | DRSC29706 | -0.481 | inactive
jagn | DRSC12152 | 0.942 | inactive
jagn | DRSC39810 | 0.246 | inactive
Gr32a | DRSC02400 | -0.583 | inactive
Gr32a | DRSC39450 | 0.452 | inactive
st | DRSC11399 | 0.744 | inactive
st | DRSC28257 | -0.281 | inactive
nAChRalpha6 | DRSC01096 | -1.34 | inactive
nAChRalpha6 | DRSC02738 | -0.498 | inactive
Task7 | DRSC16477 | -0.304 | inactive
Task7 | DRSC26662 | -0.0138 | inactive
CG9467 | DRSC16498 | -0.17 | inactive
CG7091 | DRSC12944 | 0.303 | inactive
CG7091 | DRSC16197 | 0.0555 | inactive
bon + CG15923 | DRSC39557 | -0.378 | inactive
sev | DRSC20372 | -0.521 | inactive
sev | DRSC36615 | 0.691 | inactive
sev | DRSC36616 | -0.0911 | inactive
GluRIIB | DRSC03335 | 0.0565 | inactive
GluRIIB | DRSC39568 | 0.631 | inactive
CG42514 | DRSC10428 | 0.563 | inactive
CG6790 | DRSC16117 | 0.032 | inactive
CG6149 | DRSC10593 | -0.579 | inactive
stnA + stnB | DRSC20969 | 0.378 | inactive
stnA + stnB | DRSC21112 | -0.0513 | inactive
stnA + stnB | DRSC21113 | -0.445 | inactive
Coq4 + frc | DRSC10381 | -0.832 | inactive
crq | DRSC00810 | 0.488 | inactive
CG33303 | DRSC02848 | -0.138 | inactive
CG33303 | DRSC39812 | 0.384 | inactive
Lgr3 | DRSC15704 | 0.0689 | inactive
Lgr3 | DRSC15706 | 0.555 | inactive
Osi10b | DRSC12279 | -0.885 | inactive
Osi10b | DRSC39619 | -1.06 | inactive
FucT6 | DRSC19848 | 0.53 | inactive
FucT6 | DRSC26057 | -0.403 | inactive
AstA-R1 | DRSC17278 | -0.671 | inactive
AstA-R1 | DRSC17727 | 0.084 | inactive
CG11961 | DRSC06099 | 3.74 | active
CG11961 | DRSC39529 | -0.0836 | inactive
CG5342 | DRSC15776 | 1.64 | active
Zip42C.1 | DRSC05003 | -0.978 | inactive
Task6 | DRSC16530 | 0.241 | inactive
Task6 | DRSC39545 | 1.7 | active
